Laboratory results taken from paper PMC5996148.
Where “and” joins values, the source holds several entries; their conditions need not be identical. Equal values may be shown once. This is one part of the list. For some assays here: Construct or isoform of the protein are uncertain.

By UniProt entry, the sequences of proteins in these tests, tags left out. Where a name states a change or a piece, a line headed by the entry shows the natural chain unless it says otherwise.
UniProt Q13283: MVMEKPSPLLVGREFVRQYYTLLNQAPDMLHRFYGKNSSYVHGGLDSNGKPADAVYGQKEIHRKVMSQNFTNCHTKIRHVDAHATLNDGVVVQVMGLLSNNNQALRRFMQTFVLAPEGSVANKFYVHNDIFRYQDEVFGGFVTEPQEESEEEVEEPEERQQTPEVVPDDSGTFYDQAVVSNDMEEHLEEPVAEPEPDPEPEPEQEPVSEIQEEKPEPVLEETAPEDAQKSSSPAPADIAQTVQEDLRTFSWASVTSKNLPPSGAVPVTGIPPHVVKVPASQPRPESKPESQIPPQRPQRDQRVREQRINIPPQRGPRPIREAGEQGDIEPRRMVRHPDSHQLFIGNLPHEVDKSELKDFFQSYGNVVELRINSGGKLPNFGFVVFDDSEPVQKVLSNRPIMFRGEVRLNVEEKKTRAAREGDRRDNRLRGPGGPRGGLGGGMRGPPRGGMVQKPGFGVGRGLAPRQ

Experiments:
Assay in all cases: protein microarray (ProtoArray v5.0), streptavidin-Alexa Fluor 647
Conditions in all cases: 3'-biotin; 20 mM Tris (pH 7.5), 5 mM MgCl2, 100 mM KCl, 0.1% Tween-20, A/T-rich and random oligonucleotide blockers; temperature not stated; high values mean tight binding
FUT2 (human) = tested on: FUT2 (human)
FXC1 (human) = tested on: FXC1 (human)
FXYD1 (human) = tested on: FXYD1 (human)
FXYD7 (human) = tested on: FXYD7 (human)
FYCO1 (human) = tested on: FYCO1 (human)
[1] = tested on: FYVE, RhoGEF and PH domain-containing protein 2 (human)
[2] = tested on: Ferritin heavy chain (human)
[3] = tested on: G protein-coupled receptor kinase 6 (human)
[4] = tested on: G1/S-specific cyclin-D1 (human)
G3BP1 = G3BP1 (UniProt Q13283)
G6PC (human) = tested on: G6PC (human)
[5] = tested on: GA-binding protein subunit beta-1 (human)
GABPA (human) = tested on: GABPA (human)
GABPB2 (human) = tested on: GABPB2 (human)
GADD45G (human) = tested on: GADD45G (human)
GAMT (human) = tested on: GAMT (human)
GAP43 (human) = tested on: GAP43 (human)
GAPDHS (human) = tested on: GAPDHS (human)
[6] = tested on: GAS2-like protein 3 (human)
GAST (human) = tested on: GAST (human)

## GGGGACAGGGGTATGGGGAGGGG [G4-3 biotinylated (CtG)]
FUT2 (human)
  binding signal: -0.307 z-score
FXC1 (human)
  binding signal: -0.343 z-score
FXYD1 (human)
  binding signal: -0.324 z-score
FXYD7 (human)
  binding signal: -0.312 z-score
FYCO1 (human)
  binding signal: -0.31 z-score
[1]
  binding signal: -0.341 z-score
[2]
  binding signal: -0.329 z-score
[3]
  binding signal: 6.21 z-score
[4]
  binding signal: -0.335 z-score
G3BP1
  binding signal: 4.67 z-score
G6PC (human)
  binding signal: -0.329 z-score
[5]
  binding signal: -0.343 z-score
GABPA (human)
  binding signal: -0.335 z-score
GABPB2 (human)
  binding signal: -0.343 z-score and -0.326 z-score
GADD45G (human)
  binding signal: -0.291 z-score
GAMT (human)
  binding signal: -0.323 z-score
GAP43 (human)
  binding signal: -0.33 z-score
GAPDHS (human)
  binding signal: -0.322 z-score
[6]
  binding signal: 3.96 z-score
GAST (human)
  binding signal: -0.312 z-score
